PubChem BioAssay AID686938, Drosophila RNAi Screening Center – 2013
Purpose: 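Knock-downs reducing store-operated calcium influx in Drosophila cells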 (primary screen). System: Drosophila S2R+ cells. Reagents: long dsRNA against Drosophila genes, about 0.25 µg dsRNA per well, roughly 10,000 cells. Time to read-out: 5 days of knock-down before the calcium assay. Treatment: thapsigargin (SERCA pump blocker) to empty calcium stores; entry signal taken 4 min after adding it. Read-out: 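Duplicate raw fluo-4 intensities per well from a plate reader, at rest and four minutes after thapsigargin emptied calcium stores; entry-to-rest ratio filled for only some wells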. Direction: calcium entry signal: higher = stronger calcium signal after store depletion; resting calcium signal: higher = higher resting calcium signal. Units: calcium entry signal in fluorescence units; resting calcium signal in fluorescence units. Call rule: 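Hit if the duplicate-averaged plate z-score for entry over resting signal is under −3; wells with weak total dye signal (Fmax z < −2) or more than 5 off-targets removed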. Meaning of the calls: active = strongly reduced calcium entry; inactive = no strong reduction.
The screen tested about 23,000 reagents; shown is a random part of those with a known target gene and a result. In the full data, 75 (0.33%) are marked active. 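Raw plate signals without normalisation; calls rest on plate z-scores that were not deposited; ratio present for only 364 wells.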 Reagents against one gene are numbered here. The record does not give: the dose of the treatment.

CG34457 (GeneID 5740661) gave calcium entry signal, replicate 1 = 4.34e7; calcium entry signal, replicate 2 = 5.71e7; resting calcium signal, replicate 1 = 2.08e7; resting calcium signal, replicate 2 = 2.76e7; inactive.
For CG30083 (GeneID 246444) the deposit lists calcium entry signal, replicate 1 = 5.23e7; calcium entry signal, replicate 2 = 5.01e7; resting calcium signal, replicate 1 = 2.44e7; resting calcium signal, replicate 2 = 2.24e7; inactive.
With knock-down of Gyf (GeneID 43842), the record shows calcium entry signal, replicate 1 = 4.04e7; calcium entry signal, replicate 2 = 4.30e7; resting calcium signal, replicate 1 = 1.89e7; resting calcium signal, replicate 2 = 1.86e7; inactive.
For mthl6 (GeneID 38839), the entry reads calcium entry signal, replicate 1 = 3.28e7; calcium entry signal, replicate 2 = 4.09e7; resting calcium signal, replicate 1 = 1.54e7; resting calcium signal, replicate 2 = 1.98e7; inactive.
With knock-down of JTBR (GeneID 38235), the screen gave calcium entry signal, replicate 1 = 4.45e7; calcium entry signal, replicate 2 = 4.03e7; resting calcium signal, replicate 1 = 2.14e7; resting calcium signal, replicate 2 = 1.96e7; inactive.
CG31704 (GeneID 318906) scored calcium entry signal, replicate 1 = 2.37e7; calcium entry signal, replicate 2 = 5.77e7; resting calcium signal, replicate 1 = 1.19e7; resting calcium signal, replicate 2 = 2.41e7; inactive.
HisCl1 (GeneID 41426) gave calcium entry signal, replicate 1 = 2.93e7; calcium entry signal, replicate 2 = 3.67e7; resting calcium signal, replicate 1 = 1.29e7; resting calcium signal, replicate 2 = 1.64e7; inactive.
Akt (GeneID 41957) showed calcium entry signal, replicate 1 = 2.89e7; calcium entry signal, replicate 2 = 2.36e7; resting calcium signal, replicate 1 = 1.46e7; resting calcium signal, replicate 2 = 1.10e7; inactive.
With knock-down of Ppm1 (GeneID 38071), the screen gave calcium entry signal, replicate 1 = 3.95e7; calcium entry signal, replicate 2 = 4.49e7; resting calcium signal, replicate 1 = 2.01e7; resting calcium signal, replicate 2 = 1.92e7; inactive.
For CG13847 (GeneID 42636) #1 the deposit lists calcium entry signal, replicate 1 = 3.36e7; calcium entry signal, replicate 2 = 3.81e7; resting calcium signal, replicate 1 = 1.80e7; resting calcium signal, replicate 2 = 2.00e7; inactive.
For CG13847 (GeneID 42636) #2, the entry reads calcium entry signal, replicate 1 = 6.93e7; calcium entry signal, replicate 2 = 3.29e7; resting calcium signal, replicate 1 = 3.07e7; resting calcium signal, replicate 2 = 1.34e7; inactive.
CG14743 (GeneID 35860) scored calcium entry signal, replicate 1 = 3.43e7; calcium entry signal, replicate 2 = 4.56e7; resting calcium signal, replicate 1 = 1.77e7; resting calcium signal, replicate 2 = 1.80e7; inactive.
After knock-down of Nadk2 (GeneID 35918), the record shows calcium entry signal, replicate 1 = 4.42e7; calcium entry signal, replicate 2 = 3.89e7; resting calcium signal, replicate 1 = 1.85e7; resting calcium signal, replicate 2 = 1.83e7; inactive.
Sry-delta (GeneID 43572) gave calcium entry signal, replicate 1 = 3.24e7; calcium entry signal, replicate 2 = 4.21e7; resting calcium signal, replicate 1 = 1.73e7; resting calcium signal, replicate 2 = 1.97e7; inactive.
With knock-down of Got1 (GeneID 36782), the screen gave calcium entry signal, replicate 1 = 3.25e7; calcium entry signal, replicate 2 = 3.05e7; resting calcium signal, replicate 1 = 1.53e7; resting calcium signal, replicate 2 = 1.52e7; inactive.
tub (GeneID 40554) #1 gave calcium entry signal, replicate 1 = 4.05e7; calcium entry signal, replicate 2 = 7.54e7; resting calcium signal, replicate 1 = 1.92e7; resting calcium signal, replicate 2 = 3.26e7; inactive.
For tub (GeneID 40554) #2 the deposit lists calcium entry signal, replicate 1 = 2.94e7; calcium entry signal, replicate 2 = 4.22e7; resting calcium signal, replicate 1 = 1.46e7; resting calcium signal, replicate 2 = 1.95e7; inactive.
SMC3 (GeneID 32627) scored calcium entry signal, replicate 1 = 2.72e7; calcium entry signal, replicate 2 = 3.03e7; resting calcium signal, replicate 1 = 1.60e7; resting calcium signal, replicate 2 = 1.68e7; inactive.
CG31639 (GeneID 318866) scored calcium entry signal, replicate 1 = 3.12e7; calcium entry signal, replicate 2 = 3.60e7; resting calcium signal, replicate 1 = 1.74e7; resting calcium signal, replicate 2 = 1.76e7; inactive.
After knock-down of Muc12Ea (GeneID 32384), the record shows calcium entry signal, replicate 1 = 2.49e7; calcium entry signal, replicate 2 = 2.97e7; resting calcium signal, replicate 1 = 1.39e7; resting calcium signal, replicate 2 = 1.48e7; inactive.
After knock-down of CG5861 (GeneID 34965) the results were calcium entry signal, replicate 1 = 5.06e7; calcium entry signal, replicate 2 = 4.07e7; resting calcium signal, replicate 1 = 2.21e7; resting calcium signal, replicate 2 = 1.75e7; inactive.
